Here are results for one molecule from patent US20250242024A1.

By UniProt entry, the sequences of proteins in these tests, tags left out. Residues count along the entry.
UniProt P20138, residues 18-259: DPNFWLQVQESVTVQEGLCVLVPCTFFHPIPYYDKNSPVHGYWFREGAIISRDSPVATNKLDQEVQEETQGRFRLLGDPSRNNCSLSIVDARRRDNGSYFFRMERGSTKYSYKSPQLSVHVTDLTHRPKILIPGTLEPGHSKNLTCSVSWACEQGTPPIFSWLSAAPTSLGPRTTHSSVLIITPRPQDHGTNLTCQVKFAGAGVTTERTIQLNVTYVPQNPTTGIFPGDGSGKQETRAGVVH

Results are given in words; binding and its absence hold for the method and conditions named. Some results given as binding are weak or reduced against the parent protein; the word gives no strength. For some assays here: Sequences can lack the tags named with a protein.

For test [1], the target named is T1, recombinant CLL1-Fc fusion (UniProt Q5QGZ9).
T1 sequence (looked up): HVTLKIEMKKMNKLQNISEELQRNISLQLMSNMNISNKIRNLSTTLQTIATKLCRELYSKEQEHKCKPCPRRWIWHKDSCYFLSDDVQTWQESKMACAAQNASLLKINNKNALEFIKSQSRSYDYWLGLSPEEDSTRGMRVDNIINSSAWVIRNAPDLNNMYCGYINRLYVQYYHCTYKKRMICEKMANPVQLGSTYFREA
The experiment in a line: flow cytometry; anti-CLL1 VHH on transduced T cells detected with recombinant CLL1-Fc fusion.

Test [2] addresses recombinant CD33-Fc fusion (UniProt P20138). Put plainly: flow cytometry; anti-CD33 VHH on transduced T cells detected with recombinant CD33-Fc fusion. (In general: In flow cytometry, cells or beads pass a laser one at a time.)

B1: SR006 targeting component (antiCLL1.G4S.FRB.2xG4S.antiCD33.minCD4hinge.CD4tm.CD4ic) on SR006-T cells (protein)
chain: EVQLVESGGGEVQPGGSLRLSCAASGFLFSIYDMNWYRQAPGKEREWVAGITNNGYSTAYAESVKGRFTISRDNAKNTIYLQMSSLRAEDTAVYYCHADLTKAYDVEYAWGQGTLVTVKPGGGGSLWHEMWHEGLEEASRLYFGERNVKGMFEVLEPLHAMMERGPQTLKETSFNQAYGRDLMEAQEWCRKYMKSGNVKDLTQAWDLYYHVFRRISKGGGGSGGGGSEVQLVESGGGEVQPGGSLRLSCAASRSSGIDVMGWYRQAPGKERELVAEISGVGDTNYAASLADRFTVSRDNAKNTVYLQMSSLRAEDTAVYYCNAHSFLDLVGAWGQGTLVTVKPSNIKVLPTWSTPVQPMALIVLGGVAGLLLFIGLGIFFCVRCRHRRRQ
Regarding B1, the binding result in test [1] and in test [2] was “binds” in each case.
